# Assay results as given in article PMC6058673, “Comparison of hyaluronic acid-based micelles and polyethylene glycol-based micelles on reversal of multidrug resistance and enhanced anticancer efficacy in vitro and in vivo” (Drug Delivery, 2018).
# System: MCF-7 cells
# Experiment: MTT cytotoxicity assay in sensitive MCF-7 cells
# Type: cell-based
# Conditions: Homo sapiens, MCF7, DOX concentration
# Protocol: The sensitive MCF-7 and multidrug-resistant MCF-7/Adr cells were obtained from Nanjing Kaiji Biotech. Ltd. Co. (Jiangsu, China). Cells were cultured in RPMI-1640 medium containing 10% (v/v) FBS and 1% penicillin–streptomycin at 37 °C with 5% CO2. Additionally, MCF-7/Adr cells were incubated in medium with 1 μg/mL DOX.
# The cytotoxicity of various formulations against MCF-7 and MCF-7/Adr cells was assessed by MTT assay. Briefly, MCF-7 and MCF-7/Adr cells were seeded in 96-well plates at a density of 5 × 10^4 cells/well/0.1 mL 1640 culture medium and cultured for 24 h. Then, the cells were treated with DOX-Sol, DOX + Cur, HA-PMs, TPGS2k-PMs and HA/TPGS2k-PMs with multiple concentrations of DOX for 48 and 72 h, respectively. The cells incubated with medium only were utilized as control. At time interval, 20 μL MTT (5 mg/mL) was added and incubated for another 4 h. After that, the medium of each well was discarded and added 200 μL DMSO. The absorbance of each well was measured at 570 nm using a microplate reader. Half-maximal inhibitory concentration (IC50), the resistant index (RI) and reversal factor (RF) were calculated and used to evaluate MDR reversal effects by micelles(Ling et al., [2010]; Wang et al., [2012]).
structure (smiles),measurement,setting,value
"COc1cccc2c1C(=O)c1c(O)c3c(c(O)c1C2=O)C[C@@](O)(C(=O)CO)C[C@@H]3O[C@H]1C[C@H](N)[C@H](O)[C@H](C)O1 [DOX-Sol, Doxorubicin]",IC50,"MCF-7, 48h",0.75 µg/mL
same,IC50,"MCF-7, 72h",0.51 µg/mL
